Data on 32 compounds can be found in the supplement of paper PMC12889115.

The other results are listed elsewhere or left out. Values are raw readings; no control value is given beside them.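 First-pass screen: polymyxin B was added at a level that permeabilizes the Salmonella outer membrane while sparing the inner membrane. DMSO wells, with and without polymyxin B, defined maximum growth. Because plates differed from one another, each plate's data were ranked separately and the compounds with the lowest OD600 were carried forward as hits.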

This assay deals with Salmonella enterica serovar Typhimurium SL1344. Briefly: bacterial growth OD600 after 18 h with compound and polymyxin B; higher = more bacterial growth (less inhibition). The following applies: 50 µM, Mueller-Hinton broth.

In the case of `CC(=O)c1cc(CC(=O)NC(C)c2cnn(-c3ccccc3C)c2C)cs1` (configuration not stated), where the note is “polymyxin B 1 µg/mL”, the “bacterial growth OD600” value was 0.83.

`O=C(CCc1nnc(Cc2ccc(-c3ccccc3)cc2)o1)N1C[C@@H]2CCC[C@H]1C2`: the “bacterial growth OD600” value (polymyxin B 1 µg/mL) stood at 0.994.

Turning to `COCc1ccc(C(=O)NCc2cccnc2Oc2ccc(C)nc2)s1`, the “bacterial growth OD600” value (polymyxin B 0.75 µg/mL) worked out at 0.994.

As to `CCOC(=O)N1CCC(N2CCC(Oc3ccccc3C(=O)N3CCCCC3)CC2)CC1`, the “bacterial growth OD600” value (polymyxin B 1 µg/mL) was 0.589.

In the case of `c1ccc(CCCN2CCCC(NCc3ccc4nonc4c3)C2)cc1` (configuration not stated), the “bacterial growth OD600” value (polymyxin B 1 µg/mL) turned out to be 0.283.

In the case of `Cc1ncoc1C(=O)N1CCc2c([nH]c3ccccc23)C1c1ccccc1F` (configuration not stated), the “bacterial growth OD600” value (polymyxin B 1 µg/mL) came to 0.987.

As to `CCOC(=O)C1(Cc2ccccc2C)CCCN(Cc2cnc(C)s2)C1` (configuration not stated), for the setting “polymyxin B 1 µg/mL”, the “bacterial growth OD600” value was 0.019.

Regarding `COc1cccc(CN2CCC(Oc3cc(OC)ccc3C(=O)N3CCCC3)CC2)c1`, the “bacterial growth OD600” value (polymyxin B 1 µg/mL) amounted to 1.24.

With `COCc1cc(CN(C)C(=O)c2ccc3oc(CCc4ccccc4)nc3c2)n[nH]1`, the “bacterial growth OD600” value (polymyxin B 0.75 µg/mL) worked out at 0.622.

As for `CCN(CC)C(=O)C1CCN(c2nc3nonc3nc2NCc2ccccc2)CC1`, for the setting “polymyxin B 1 µg/mL”, the “bacterial growth OD600” value was determined as 0.68.

As to `c1ccc(CCN(Cc2ccccc2)Cc2nc(-c3cnccn3)no2)cc1`, the “bacterial growth OD600” value (polymyxin B 1 µg/mL) was 0.542.

Turning to `COc1ccc(Cl)cc1NC(=O)CCC1CCCN(C(=O)c2ccoc2C)C1` (configuration not stated), where the note is “polymyxin B 1 µg/mL”, the “bacterial growth OD600” value turned out to be 0.686.

Consider `O=C(N[C@@H]1c2ccccc2C2(CCN(C(=O)c3scc4c3CCCC4)CC2)[C@H]1O)c1ccccc1`, for which the “bacterial growth OD600” value (polymyxin B 0.75 µg/mL) was determined as 0.602.

Regarding `O=C(Cn1nnnc1CN1CCOCC1)N[C@@H]1CCCC[C@H]1c1ccccc1`, for the setting “polymyxin B 0.75 µg/mL”, the “bacterial growth OD600” value turned out to be 0.79.

Regarding `CCN1CCN(C2(C(=O)NCc3cccc(C)c3)Cc3ccccc3C2)CC1`, for the setting “polymyxin B 0.75 µg/mL”, the “bacterial growth OD600” value came to 0.775.

As to `CCOC(=O)C1(Cc2ccc(OC)cc2)CCN(C(=O)CSc2nc(C)cs2)CC1`, the “bacterial growth OD600” value (polymyxin B 0.75 µg/mL) was determined as 0.493.

With `COc1cc(OC)nc(N2C[C@H]3OC(=O)N(CCN4CCCCC4)[C@H]3C2)n1`, the “bacterial growth OD600” value (polymyxin B 1 µg/mL) was found to be 1.17.

As for `O=C(CCC1CCN(C(=O)C2CCOC2)CC1)NCc1cccc(C(F)(F)F)c1` (configuration not stated), the “bacterial growth OD600” value (polymyxin B 1 µg/mL) was determined as 1.05.

Take `CSCCNC(=O)C1CCC(=O)N(CCCN2CCOCC2)C1` (configuration not stated): where the note is “polymyxin B 1 µg/mL”, the “bacterial growth OD600” value is 0.859.

In the case of `O=C(CCC1(Cc2ccco2)CCC(=O)N1)NCc1ccc(F)cc1F` (configuration not stated), under “polymyxin B 0.75 µg/mL”, the “bacterial growth OD600” value amounted to 0.915.

Turning to `C/C=C(\C)CN1CCC(N2CCC(C(=O)NCc3cccnc3)CC2)CC1`, the “bacterial growth OD600” value (polymyxin B 1 µg/mL) was determined as 1.08.

Turning to `COCC1CCCCN1Cc1nc(-c2ccc(C(=O)OC)cc2)oc1C` (configuration not stated), the “bacterial growth OD600” value (polymyxin B 1 µg/mL) stood at 0.872.

For the compound `CCN(CC1CCCN(CCc2cccc(OC)c2)C1)C(=O)c1cccs1` (configuration not stated), where the note is “polymyxin B 1 µg/mL”, the “bacterial growth OD600” value was 0.811.

Turning to `Cc1ccc(C(=O)N(CCN2CCCCC2)CC2CCCN(C3CCCC3)C2)s1` (configuration not stated), the “bacterial growth OD600” value (polymyxin B 1 µg/mL) came out at 0.748.

Regarding `O=C(CC(c1ccccc1)c1ccccc1Cl)N1CCCC1` (configuration not stated), for the setting “polymyxin B 1 µg/mL”, the “bacterial growth OD600” value came to 0.003.

Regarding `O=C(NCc1cccnc1-n1cnc2ccccc21)c1ccsc1`, the “bacterial growth OD600” value (polymyxin B 1 µg/mL) is 0.88.

With `COc1cc(NC(=O)CCC2CCCN(C(=O)C(=O)c3ccco3)C2)cc(OC)c1` (configuration not stated), the “bacterial growth OD600” value (polymyxin B 0.75 µg/mL) was found to be 0.878.

In the case of `COCCNC(=O)c1ccc(OC2CCN(Cc3ccc(F)c(OC)c3)CC2)c(Cl)c1`, the “bacterial growth OD600” value (polymyxin B 1 µg/mL) is 0.828.

For the compound `Cc1ccccc1Oc1ncccc1CNC(=O)C(C)N1CCCC1=O` (configuration not stated), under “polymyxin B 1 µg/mL”, the “bacterial growth OD600” value turned out to be 0.865.

`CN(C(=O)CC(c1ccccc1)c1ccccc1Cl)C1CCOCC1` (configuration not stated): under “polymyxin B 0.75 µg/mL”, the “bacterial growth OD600” value is 0.031.

As to `COC(=O)CNC(=O)CC(c1ccccc1)c1ccc(OC)cc1` (configuration not stated), for the setting “polymyxin B 1 µg/mL”, the “bacterial growth OD600” value turned out to be 0.87.

For the compound `COc1ccc(CCNc2nncc(-c3ccccc3C)n2)c(OC)c1`, the “bacterial growth OD600” value (polymyxin B 0.75 µg/mL) came to 0.269.
